Assay results as given in the supplement of paper PMC11542785.
Structures can show the parent of a compound that is named as a salt. This is one part of the list. Repeats are few or missing, and single values can be far off.

Test system: Drosophila melanogaster DPAGT1 (Alg7) RNAi eye model
Test: eye size Z-score vs DMSO-treated DPAGT1 model flies; higher = larger eye (suppression of DPAGT1 phenotype)
Settings: 5 uM

| Compound | eye size Z-score | eye size Z-score (female) |
| --- | --- | --- |
| CCN1CCCC1CNC(=O)c1cc(S(N)(=O)=O)ccc1OC (stereo unspecified) [Sulpiride] | 1.8 | – |
| COc1ccc(-c2ccc3cc(C(=O)O)ccc3c2)cc1C12CC3CC(CC(C3)C1)C2 [Adapalene] | 0.83 | – |
| Cc1ccc2c([nH]c(=O)c3c(=O)cc(C(=O)OCCC(C)C)oc32)c1C [Repirinast] | -0.4 | – |
| NCCc1ccc(O)c(O)c1 [Dopamine hydrochloride] | -0.18 | – |
| C[C@H](CS)C(=O)N1CCC[C@H]1C(=O)O [Captopril] | -0.49 | – |
| CN(Cc1cc(Br)cc(Br)c1N)C1CCCCC1 [Bromhexine hydrochloride] | -0.05 | – |
| CC1(C)O[C@@H]2C[C@H]3[C@@H]4C[C@H](F)C5=CC(=O)C=C[C@]5(C)[C@H]4[C@@H](O)C[C@]3(C)[C@]2(C(=O)CO)O1 [Flunisolide] | -0.05 | – |
| COc1ccc(CNc2nc(N3CCC[C@H]3CO)ncc2C(=O)NCc2ncccn2)cc1Cl [Avanafil] | 2.1 | – |
| CC[C@H](c1ccc(O)cc1)[C@@H](CC)c1ccc(O)cc1 [Hexestrol] | -0.36 | – |
| Cc1c(Nc2ncccc2C(=O)O)cccc1C(F)(F)F [Flunixin meglumine] | -0.1 | – |
| CC(C)(C)NC(=O)[C@H]1CC[C@H]2[C@@H]3CC[C@H]4NC(=O)C=C[C@]4(C)[C@H]3CC[C@]12C [Finasteride] | 1.27 | – |
| Nc1nc(N)c2nc(-c3ccccc3)c(N)nc2n1 [Triamterene] | 1.01 | – |
| CCCCOc1ccc(C(=O)CCN2CCCCC2)cc1 [Dyclonine hydrochloride] | -0.22 | – |
| Cn1nnc2c(C(N)=O)ncn2c1=O [Temozolomide] | -0.67 | – |
| CC(C)(C)CC(C)(C)c1ccc(OCCOCC[N+](C)(C)Cc2ccccc2)cc1 [Benzethonium chloride] | -0.21 | – |
| CC(C)NCC(O)COc1cccc2[nH]ccc12 (stereo unspecified) [Pindolol] | -0.21 | – |
| OC(CCN1CCCC1)(c1ccccc1)C1CCCCC1 (stereo unspecified) [Procyclidine hydrochloride] | -0.51 | – |
| CC(CN(C)C)CN1c2ccccc2CCc2ccccc21 (stereo unspecified) [Trimipramine maleate salt] | – | -0.04 |
| CC(C)C(=O)c1c(C(C)C)nn2ccccc12 [Ibudilast] | -0.33 | – |
| C[N+](C)(C)C[C@H](O)CC(=O)[O-] [Levocarnitine] | 0.4 | – |
| Nc1ccc(C(=O)O)c(O)c1 [Aminosalicylic acid] | -0.28 | – |
| O=C1Nc2ccc(Cl)cc2[C@@](C#CC2CC2)(C(F)(F)F)O1 [Efavirenz] | -0.64 | – |
| O=C(O)c1ccccc1Nc1cccc(C(F)(F)F)c1 [Flufenamic acid] | -2.33 | – |
| CC[N+](C)(CC)CCC[n+]1c(-c2ccccc2)c2cc(N)ccc2c2ccc(N)cc21 [Propidium iodide] | -0.19 | – |
| Clc1ccc(C(c2ccccc2Cl)C(Cl)Cl)cc1 (stereo unspecified) [Mitotane] | 1.07 | – |
| O=C1O[C@H]([C@@H](O)CO)C(O)=C1O [Ascorbic acid] | -0.27 | – |

| Compound | eye size Z-score | eye size Z-score (female) |
| --- | --- | --- |
| Cc1cccc(C)c1OCC(=O)N[C@@H](Cc1ccccc1)[C@@H](O)C[C@H](Cc1ccccc1)NC(=O)[C@H](C(C)C)N1CCCNC1=O [Lopinavir] | -0.19 | – |
| Nc1ccc(/N=N/c2ccccc2)c(N)n1 [Phenazopyridine hydrochloride] | 0.09 | – |
| CN(C)CCOC(=O)C(c1ccccc1)C1(O)CCCC1 (stereo unspecified) [Cyclopentolate hydrochloride] | 0.85 | – |
| CCC(=O)O[C@]1(C(=O)SCF)[C@H](C)C[C@H]2[C@@H]3C[C@H](F)C4=CC(=O)C=C[C@]4(C)[C@@]3(F)[C@@H](O)C[C@@]21C [Fluticasone propionate] | 0.77 | – |
| OCCN1CCN(CC/C=C2/c3ccccc3Sc3ccc(Cl)cc32)CC1 [Zuclopenthixol dihydrochloride] | 0.02 | – |
| Nc1nc(/C(=C/CC(=O)O)C(=O)N[C@@H]2C(=O)N3C(C(=O)O)=CCS[C@H]23)cs1 [Ceftibuten] | -0.96 | – |
| CCc1nn(CCCN2CCN(c3cccc(Cl)c3)CC2)c(=O)n1CCOc1ccccc1 [Nefazodone hydrochloride] | 1.27 | – |
| O=S(=O)(c1cccc2cnccc12)N1CCCNCC1 [Fasudil Hydrochloride] | -0.18 | – |
| CCCNC(C)(C)COC(=O)c1ccccc1 [Meprylcaine hydrochloride] | 0.3 | – |
| C[N+](C)(CCOc1ccccc1)Cc1ccccc1.O=C([O-])c1cc2ccccc2cc1O [Bephenium hydroxynaphthoate] | 0.63 | – |
| CC(NCCc1ccc(O)cc1)C(O)c1ccc(O)cc1 (stereo unspecified) [Ritodrine hydrochloride] | 0.7 | – |
| NC1CCN(c2c(F)cc3c(=O)c(C(=O)O)cn(C4CC4)c3c2Cl)C1 (stereo unspecified) [Clinafloxacin] | 0.02 | – |
| CCC1(C)CC(=O)NC1=O (stereo unspecified) [Ethosuximide] | -0.25 | – |
| O=[N+]([O-])c1ccc(O)c2ncccc12 [Nitroxoline] | 0.83 | – |
| CCCc1nn(C)c2c(=O)[nH]c(-c3cc(S(=O)(=O)N4CCN(C)CC4)ccc3OCC)nc12 [Sildenafil] | -0.36 | – |
| CCC(C)(C)C(=O)O[C@H]1C[C@@H](C)C=C2C=C[C@H](C)[C@H](CC[C@@H]3C[C@@H](O)CC(=O)O3)[C@H]21 [Simvastatin] | 0.14 | – |
| CCOC(=O)CC(=O)N1CCSC1COc1ccccc1OC (stereo unspecified) [Moguisteine] | 1.83 | – |
| CC(=O)Oc1ccc(C(c2ccc(OC(C)=O)cc2)c2ccccn2)cc1 [Bisacodyl] | -0.84 | – |
| O=C(O)CCC(=O)c1ccc(-c2ccccc2)cc1 [Fenbufen] | 0.42 | – |
| CN1CCN2c3ccccc3Cc3ccccc3C2C1 (stereo unspecified) [Mianserine hydrochloride] | -0.32 | – |
| N[C@@H](Cc1ccc(O)c(O)c1)C(=O)O [Levodopa] | 1.21 | – |
| CCCCc1ncc(/C=C(\Cc2cccs2)C(=O)O)n1Cc1ccc(C(=O)O)cc1 [Eprosartan mesylate] | 1.44 | – |
| O=C(NC(Cc1cc(=O)[nH]c2ccccc12)C(=O)O)c1ccc(Cl)cc1 (stereo unspecified) [Rebamipide] | 0.09 | – |
| C[N+](C)(C)CCOC(N)=O [Carbachol chloride] | -0.56 | – |
| CC(C)(C)NC[C@H](O)COc1cccc2c1CCCC2=O [(-) Levobunolol hydrochloride] | -0.44 | – |

Nothing new here: an excerpt of the list.

| Compound | eye size Z-score | eye size Z-score (female) |
| --- | --- | --- |
| CCc1nn(CCCN2CCN(c3cccc(Cl)c3)CC2)c(=O)n1CCOc1ccccc1 [Nefazodone hydrochloride] | 1.27 | – |
| O=S(=O)(c1cccc2cnccc12)N1CCCNCC1 [Fasudil Hydrochloride] | -0.18 | – |
| CCCNC(C)(C)COC(=O)c1ccccc1 [Meprylcaine hydrochloride] | 0.3 | – |
